Results on 20 compounds are retold here after the supplement of paper PMC12889115.

The structures appear in SMILES notation. Some of the results follow. Values are raw readings; no control value is given beside them.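 First-pass screen: polymyxin B was added at a level that permeabilizes the Salmonella outer membrane while sparing the inner membrane. DMSO wells, with and without polymyxin B, defined maximum growth. Because plates differed from one another, each plate's data were ranked separately and the compounds with the lowest OD600 were carried forward as hits.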

In this assay the test system is Salmonella enterica serovar Typhimurium SL1344. Put plainly: bacterial growth OD600 after 18 h with compound and polymyxin B; higher = more bacterial growth (less inhibition). The following applies: 50 µM, Mueller-Hinton broth.

Consider `Nc1ncc(CN2CCCC(CNC(=O)CCc3ccccc3)C2)cn1` (stereo not given), for which, under “polymyxin B 0.75 µg/mL”, the “bacterial growth OD600” value worked out at 0.848. Same read-out and setting: the figure for `COc1ccc(CN2CCC(C(Cc3ccccc3)N(C(=O)c3ccco3)C3CC3)CC2)cc1C` (stereo not given) is 0.004. Consider `O=C(CC(c1cccc(O)c1)c1ccccc1Cl)N1CCCC1` (stereo not given), for which the “bacterial growth OD600” value (polymyxin B 1 µg/mL) came to 0.523. Turning to `COCC(C)NC(=O)c1cc(COc2cccc(C(F)(F)F)c2)[nH]n1` (stereo not given), for the setting “polymyxin B 1 µg/mL”, the “bacterial growth OD600” value was 0.87.

On to `COc1ccc(C(=O)N2CCCC2)c(OC2CCN(Cc3ccc(SC)cc3)CC2)c1`, for which the “bacterial growth OD600” value (polymyxin B 1 µg/mL) came to 1.15. On the same count and under the same terms, for `COc1ccc(OC2CCN(C3CCCC3)CC2)c(C(=O)NCCSC)c1` the value was 0.842. Regarding `CCc1[nH]c2c(CNC(=O)Cc3cccnc3)cc(F)cc2c1C`, the “bacterial growth OD600” value (polymyxin B 0.75 µg/mL) was determined as 0.825.

In the case of `C=CCS(=O)(=O)N1CCCC(CCc2cccc(OC)c2)C1` (stereo not given), the “bacterial growth OD600” value (polymyxin B 0.75 µg/mL) is 0.007.

For `NC(=O)C1CCN(C(=O)CC(c2ccccc2)c2ccccc2Cl)CC1` (stereo not given), the “bacterial growth OD600” value (polymyxin B 1 µg/mL) is 0.775. `O=C(CCCc1ccccc1)Nc1cccc(N2CCC(N3CCN(c4ccccc4O)CC3)CC2)c1`: the “bacterial growth OD600” value (polymyxin B 0.75 µg/mL) came out at 0.515.

Turning to `CC(C)c1noc(-c2ccc(NCc3noc(C(C)C)n3)nc2)n1`, the “bacterial growth OD600” value (polymyxin B 0.75 µg/mL) worked out at 0.623. With `O=C(c1cc(COc2cccc3cccnc23)on1)N1CCCCCCC1`, the “bacterial growth OD600” value (polymyxin B 1 µg/mL) was found to be 0.835.

On to `OC(Cc1ccccc1)c1ccc2c(c1)CN(Cc1ccco1)CCO2` (stereo not given), for which the “bacterial growth OD600” value (polymyxin B 0.75 µg/mL) was 0.786. Turning to `CN1CCCC(CN(CCc2ccccc2)C(=O)c2ccc(F)c(F)c2)C1` (stereo not given), the “bacterial growth OD600” value (polymyxin B 1 µg/mL) was determined as 0.848.

Regarding `CCOC(=O)C1(Cc2ccc(F)cc2)CCCN(C(=O)c2cn(C)c3ccccc3c2=O)C1` (stereo not given), the “bacterial growth OD600” value (polymyxin B 0.75 µg/mL) stood at 0.799. The same measure, in the same setting: for `COc1cc(CN2CCc3[nH]ncc3C2)ccc1OCC(O)CN(C)C1CCCCC1` (stereo not given) the value was 0.793; for `Cc1cc2c(C)nc(N3CCC(NC(CCn4ccnc4C)c4ccccc4)CC3)nc2cc1F` (stereo not given), 0.754; for `O=C(Cn1cccn1)N1CCCC(CCc2ccccc2)C1` (stereo not given), 0.973.

For the compound `CCc1ocnc1C(=O)NC1CCCN(C2CCCCCC2)C1` (stereo not given), the “bacterial growth OD600” value (polymyxin B 1 µg/mL) was found to be 1.12. Consider `CCOC(=O)C1(CCOc2ccccc2)CCCN(C(=O)c2cccnc2SC)C1` (stereo not given), for which, where the note is “polymyxin B 1 µg/mL”, the “bacterial growth OD600” value amounted to 0.869.
